Consider 78 substances from the supplement of paper PMC5949888.

Most values lie at the floor of the assay. Slopes are relative: functional sequences can read slightly below zero. Some results are limits rather than exact numbers.

The data set has as its system Saccharomyces cerevisiae PS128 hsf1 delta, HSF1(1-493) fusion. Description: growth estimate (transactivation domain function in HSF1 fusion, heat-shock survival) (a.u. (slope of normalised read count over time)); higher = stronger growth at 37°C, i.e. more transactivation activity. The conditions noted are these: library: random library.
As for TIEARFQLFCSREDRKRVFP, the growth estimate is under -0.25. GCGGPMICGETSWRRSQIMR: the growth estimate was under -0.25.

Regarding VFAGNRRDWFRISCLLLAFS, the growth estimate is under -0.25.

LYAVYVLSPIGLG: the growth estimate was under -0.25. For GVGLAVCGYRVIETIAALGT, the growth estimate was under -0.25. The result for AKSLFLL reads under -0.25; that for KVKSYPENLSSFTGQVKYPL, under -0.25; that for DHTF, under -0.25. For the substance LQRRRVAVRIYIVMTWLVWM, the growth estimate was under -0.25. Consider FSSRRRLALKCP, for which the growth estimate was under -0.25. On to LQGIALTRSLEEAEFGFQVA, for which the growth estimate is under -0.25. As for GESIGMMDPWSY, the growth estimate is -0.224.

Regarding RKNWPGPPAILE, the growth estimate is under -0.25. As for VPDRCESGSGG, the growth estimate was under -0.25. The result for SADQAPGLECRCS reads under -0.25; that for LCYGPS, under -0.25; that for LWGGRQLRYRAPILFA, under -0.25. With TRIIIVFRCTISAAAVQPRT the figure was under -0.25. The result for MSGRSMWVFFLGLGVRFATS reads under -0.25. On to VEKRHSSLSEER, for which the growth estimate is under -0.25. The result for PRRTLVGPYRETWRSLSVVA reads under -0.25; that for NIKTYSRLSRDYTRKGIHES, under -0.25; that for HLLVISG, under -0.25. As to RLC, the growth estimate was under -0.25.

Consider RFDDRLL, for which the growth estimate was under -0.25. The result for GSSANG reads under -0.25; that for IDWIIERCTSHLETISI, under -0.25; that for KFVASNWAADRENGSETEST, under -0.25. ELTSVLGEGSNGHASCPSVY: the growth estimate is under -0.25. The result for EDIVNGICREYG reads under -0.25; that for QWRNGDSAAQEPWRHWRVGS, under -0.25; that for RRERWVGQLRQYMYAGACGR, under -0.25. The result for LCEKRRLPVEWAPQSNPRST reads under -0.25; that for FLNFLRLRINSLQLASATFR, under -0.25; that for FCLRALAILIQLISDKLRLV, under -0.25. With GVDRVASSSTWGSEKRVDLI the figure was under -0.25. In the case of LVAKLIPDIIGTPSQNYAIL, the growth estimate was under -0.25. With FLVVQTGGVTHTTDSHQ the figure was under -0.25. In the case of VPQSTRNESSGEHAPDRAPR, the growth estimate is under -0.25. The result for PTIDTTALLTVPFTLGPTVV reads under -0.25; that for RMYLIIPETSAYDEQSELNK, under -0.25; that for GTIRHGTLVTGRNEKAASKG, under -0.25. The result for PMVGGLSCCVAGRVELMSSD reads 0.0112; that for FTKITTYDW, under -0.25. With GELIHKHPRATRGATKMSGW the figure was under -0.25. As to GVGDYLLLDLMNTIWYMGKV, the growth estimate was -0.173. RSLRTNLAARYGSERITTQQ: the growth estimate is under -0.25. With LGGVFGMDFLLGLLI the figure was under -0.25; with SVGSTA, under -0.25; with GKCRADTYTEVG, under -0.25. With VHQDCYSGVLGTFREVVSRP the figure was under -0.25. On to RLRETR, for which the growth estimate is under -0.25. VRSSYAGYFAGILRLQRLF: the growth estimate is under -0.25. Consider NLRIRGATDRNSEGSITTAH, for which the growth estimate was under -0.25.

HCLRRTDYSRTCCMTYCANI: the growth estimate was under -0.25. For ECVLSASAVTCGQIVNRPAT, the growth estimate is under -0.25.

On to LRGISPREDIVS, for which the growth estimate is under -0.25. With NGSMYTASGCEHHKGSSNCS the figure was under -0.25. Turning to VILQSL, the growth estimate is under -0.25. For VGSQVDLRMTPEPSHSLFKP, the growth estimate is under -0.25. Take LSVKPDAYGHAAMYSHRPKG: the growth estimate was under -0.25. With ICGRGSFLPLFYMVLEDQNR the figure was under -0.25; with WKVRINRPHVRAESCMRPPR, under -0.25; with LRGVAFL, under -0.25. The result for RVH reads under -0.25; that for EDGSAGPDCTLVQKRHS, under -0.25; that for PQGELEVGVYGFASL, under -0.25.

On to DVRSETV, for which the growth estimate was under -0.25. With LVQSTFPY the figure was under -0.25; with RVRGSNPSWGTLG, under -0.25. Regarding PSQRTSKGF, the growth estimate is under -0.25. With SRLSTMAERTPSRF the figure was under -0.25; with QLGRDVALVQLHLSGKGPVI, under -0.25.

Take RSDS: the growth estimate is under -0.25. Regarding AEIRSAGFVQN, the growth estimate is under -0.25. With VPNAR the figure was under -0.25. Turning to PTSS, the growth estimate is under -0.25. The result for HLLLWCRRFSSMRYPCTFCI reads under -0.25.
